The other results are listed elsewhere or left out.

This assay deals with diphosphomevalonate decarboxylase (Streptococcus pneumoniae D39). Briefly: diphosphomevalonate decarboxylase activity blockers – biochemical, PK/LDH-coupled NADH fluorescence, primary screen (AID 556).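 Also: kinetic rate of NADH fluorescence loss reporting ADP formed by the decarboxylase; 0% = full reaction rate with carrier and 100% = no-substrate background rate.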 Conditions: purified DPM-DC, measured here: pilot screen trials, at 10 µM, stronger effect = higher value.
By inhibition is commonly meant the percentage by which the read-out fell short of the control. For `Fc1ccccc1NC1CCN(Cc2ccccc2)CC1`, the inhibition worked out at 1%.
